Data reported in the supplement of paper PMC7877785.
± gives the uncertainty stated by the source. Many entries were measured with a wide error.

Test: self-splicing fitness, log relative to wild type (ln ratio); higher = more splicing; Tetrahymena group I intron in knt gene, E. coli kanamycin selection, DiMSum; sequences stand for … in CUCUCU…GGAGGGAAAAGUUAUCAGGCAUGCACCUGGUAGCUAGUCUUUAAACCAAUAGAUUGCAUCGGUUUAAAAGGCAAGACCGUCAAAUUGCGGGAAAGGGGUCAACAGCCGUUCAGUACCAAGUCUCAGGGGAAACUUUGAGAUGGCCUUGCAAAGGGUAUGGUAAUAAGCUGACGGACAUGGUCCUAACCACGCAGCCAAGUCCUAAGUCAACAGAUCUUCUGUUGAUAUGGAUGCAGUUCACAGACUAAAUGUCGGUCGGGGAAGAUGUAUUCUUCUCAUAAGAUAUAGUCGGACCUCUCCUUAAUGGGAGCUAGCGGAUGAAGUGAUGCAACACUGGAGCCGCUGGGAACUAAUUUGUAUGCGAAAGUAUAUUGAUUAGUUUUGGAGUACUCGUGGUCG
Summary of the method: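 DiMSum derived fitness as the error-weighted combination of fold changes across replicates, kanamycin versus no kanamycin, normalised to wild type. E. coli BL21(DE3) held the library, which randomised all eight P1ex-region intron nucleotides within the knt kanamycin-resistance gene on pET-22b(+). Six replicate transformations grew overnight at 37°C or 30°C on LB agar with or without 25 μg/mL kanamycin, also containing 100 μg/mL carbenicillin, 50 μM IPTG and 0.2% rhamnose, and pooled colonies were amplicon-sequenced on an Illumina HiSeq 2500.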

Row | Sequence | self-splicing fitness (ln) (30 °C) | self-splicing fitness (ln) (37 °C)
1 | CGGUAGCAAUAUUACGGGCG | -0.838 ± 0.12 | 0.0595 ± 0.14
2 | GACCAGCAAUAUUACGUGAG | -1.33 ± 0.055 | -1 ± 0.064
3 | CAAAAGCAAUAUUACGGGGA | -3.26 ± 0.15 | -2.36 ± 0.15
4 | CGGUAGCAAUAUUACGUUAU |  | -2.01 ± 0.65
5 | GACUAGCAAUAUUACGAGGC | -3.65 ± 0.52 | 
6 | AGGGAGCAAUAUUACGAUAA | -3.72 ± 0.6 | 
7 | AGUUAGCAAUAUUACGCUUC |  | -3.17 ± 0.52
8 | AUGGAGCAAUAUUACGCGGG | -2.84 ± 0.45 | -2.16 ± 0.55
9 | GAGGAGCAAUAUUACGAGGC | -3.47 ± 0.47 | -2.39 ± 1.1
10 | CCGAAGCAAUAUUACGAUUC | -4.08 ± 0.52 | 
11 | GCGGAGCAAUAUUACGAGGC | -1.99 ± 0.59 | 
12 | AGUGAGCAAUAUUACGACCC | -1.21 ± 0.54 | 0.279 ± 0.87
13 | AAGGAGCAAUAUUACGAUCC | -3.06 ± 0.54 | 
14 | GGCGAGCAAUAUUACGCCUC |  | -2.03 ± 0.66
15 | UUCCAGCAAUAUUACGAUAC | -4.01 ± 0.74 | -2.03 ± 1.1
16 | CCUAAGCAAUAUUACGCGCG | -3.42 ± 0.39 | -1.9 ± 0.25
17 | AGGGAGCAAUAUUACGAUGG | -3.81 ± 0.74 | 
18 | AUAAAGCAAUAUUACGGGCU | -0.992 ± 0.08 | -0.621 ± 0.1
19 | CAGGAGCAAUAUUACGACGC |  | 0.000402 ± 1.2
20 | CUGUAGCAAUAUUACGUCCA | -4.04 ± 0.76 | 
21 | CGGGAGCAAUAUUACGGGGU |  | -1.6 ± 0.72
22 | ACCUAGCAAUAUUACGGAUA | -1.65 ± 0.11 | -1.59 ± 0.099
23 | UGGAAGCAAUAUUACGUUCC | -2.71 ± 0.79 | -0.749 ± 0.56
24 | UCGUAGCAAUAUUACGACGC | -3.06 ± 1.1 | -1.95 ± 0.53
25 | UGGGAGCAAUAUUACGCCAC |  | -1.27 ± 0.74

Row | Sequence | self-splicing fitness (ln) (30 °C) | self-splicing fitness (ln) (37 °C)
26 | UCCGAGCAAUAUUACGCCAU | -2.56 ± 0.28 | -3.16 ± 0.4
27 | AACUAGCAAUAUUACGACGA | -0.137 ± 0.066 | -0.576 ± 0.074
28 | UCGGAGCAAUAUUACGUAUA | -3.31 ± 0.75 | -1.88 ± 1.2
29 | UAAUAGCAAUAUUACGAGAA | -2.9 ± 0.75 | 
30 | UGCGAGCAAUAUUACGUCAC | -1.96 ± 0.5 | 
31 | CGAAAGCAAUAUUACGUAAC | -3.35 ± 1 | 
32 | GGAAAGCAAUAUUACGAACC | -3.32 ± 0.33 | -1.2 ± 0.19
33 | GGGUAGCAAUAUUACGCCCC | -1.32 ± 1.4 | 
34 | CGGGAGCAAUAUUACGGAUA |  | -3.08 ± 1.1
35 | GGAAAGCAAUAUUACGCACC |  | -2.66 ± 0.76
36 | UGAGAGCAAUAUUACGGACU | -3.5 ± 1 | -2.6 ± 0.76
37 | UUGGAGCAAUAUUACGUCAC | -1.54 ± 0.7 | 
38 | UCGCAGCAAUAUUACGACGC | -1.81 ± 0.48 | -2.42 ± 0.8
39 | CGGAAGCAAUAUUACGGGCC | -2.94 ± 0.51 | -2.89 ± 0.61
40 | UAUAAGCAAUAUUACGUUUG | -1.84 ± 0.11 | -1.61 ± 0.14
41 | AGAGAGCAAUAUUACGACAA | -2.02 ± 1.2 | 
42 | AGAGAGCAAUAUUACGUACG | -3.81 ± 1 | -2.18 ± 0.65
43 | AGGGAGCAAUAUUACGCAAU | -3.43 ± 0.61 | 
44 | GCUGAGCAAUAUUACGUCAA |  | -3.99 ± 0.51
45 | UUUUAGCAAUAUUACGCAAU |  | -3.07 ± 0.54
46 | GUGUAGCAAUAUUACGCCAG | -3.12 ± 1.1 | 
47 | CGUAAGCAAUAUUACGGAGC |  | -2.29 ± 1.1
48 | UGUGAGCAAUAUUACGCCUA |  | -1.09 ± 0.65
49 | AGCGAGCAAUAUUACGCCCC | -2.76 ± 0.51 | 
50 | AAAUAGCAAUAUUACGCUAC | -3.47 ± 0.75 | 

Complete entries, quoted from the list:
UCGGAGCAAUAUUACGUAUA is listed as self-splicing fitness (ln) (30 °C): -3.31 ± 0.75; self-splicing fitness (ln) (37 °C): -1.88 ± 1.2
AACUAGCAAUAUUACGACGA is listed as self-splicing fitness (ln) (30 °C): -0.137 ± 0.066; self-splicing fitness (ln) (37 °C): -0.576 ± 0.074

(further entries)

Row | Sequence | self-splicing fitness (ln) (30 °C) | self-splicing fitness (ln) (37 °C)
51 | UGCCAGCAAUAUUACGUUCC | -1.31 ± 0.31 | -2.25 ± 0.3
52 | AGAGAGCAAUAUUACGUCGA |  | -2.74 ± 0.53
53 | GGAGAGCAAUAUUACGCCGU | -4.31 ± 1 | -0.92 ± 0.61
54 | CAGGAGCAAUAUUACGGUAA | -4.48 ± 0.73 | 
55 | GGAGAGCAAUAUUACGAAAU | -3.86 ± 0.6 | 
56 | CGCCAGCAAUAUUACGAGUU | -3.19 ± 0.15 | -3.16 ± 0.2
57 | UUGAAGCAAUAUUACGAAAC | -3.86 ± 1 | -2.22 ± 0.64
58 | AGCGAGCAAUAUUACGAGGC |  | -2.13 ± 0.78
59 | ACCGAGCAAUAUUACGCAGA | -2.2 ± 0.19 | -2.51 ± 0.23
60 | UGUAAGCAAUAUUACGCCCC | -0.00987 ± 0.86 | -0.673 ± 0.73
61 | CCAGAGCAAUAUUACGUAUA | -4.6 ± 0.51 | 
62 | AGCGAGCAAUAUUACGAGAA | -3.16 ± 1 | -1.13 ± 1.2
63 | GGUAAGCAAUAUUACGCUUA | -3.29 ± 0.53 | 
64 | UUUGAGCAAUAUUACGGAGC | -2.02 ± 0.49 | -1.88 ± 1.2
65 | GUCGAGCAAUAUUACGAGGA | -2.93 ± 0.51 | 
66 | AGUAAGCAAUAUUACGCUUG | -4.62 ± 1 | -1.41 ± 0.71
67 | UAUGAGCAAUAUUACGAUCC | -4.11 ± 0.52 | 
68 | GGUGAGCAAUAUUACGUGGC | -4.03 ± 0.59 | 
69 | GGGUAGCAAUAUUACGCCCA | -1.52 ± 0.9 | -1.65 ± 0.6
70 | GAAUAGCAAUAUUACGACGC | 0.293 ± 0.13 | -0.0831 ± 0.16
71 | UGGUAGCAAUAUUACGAUUU | -1.14 ± 0.14 | -0.866 ± 0.14
72 | CAUUAGCAAUAUUACGCCGG | -0.963 ± 0.15 | 0.612 ± 0.24
73 | GAAGAGCAAUAUUACGGCCC | -2.79 ± 1.2 | 
74 | GCUGAGCAAUAUUACGCCUA | -1.55 ± 0.32 | -0.595 ± 0.2
75 | UGGUAGCAAUAUUACGGGAC | -4.19 ± 1 | 
